Measured values reported in US20070104719A1, “Caspase Activated Prodrugs Therapy” (Genentech, Inc., priority 2000, published 2007).
Not every detail of the peptide structures is certain; ends, links or a residue may be inferred. Starred links: 1 amine or outer side, 2 acyl side, 3 side chain; linkers in the order of their positions; H or OH if unused. Non-standard residues stand in square brackets, D forms with d. Residues, ends and D or L forms follow the SMILES beside them. *: point of attachment. Doxorubicin(3'-N) = COc1cccc2c1C(=O)c1c(O)c3c(c(O)c1C2=O)C[C@@](O)(C(=O)CO)C[C@@H]3O[C@H]1C[C@H](N*)[C@H](O)[C@H](C)O1; PABC = O=C(OCc1ccc(N[*:1])cc1)[*:2]

Columns and labels:
[1] = system: SK-BR-3 breast carcinoma cells; test: Prodrug cytotoxicity assay 1 (crystal violet), plus or minus caspase 3; assay type: cell-based, human; details: SK-BR-3 cells
[2] = system: MCF7 breast carcinoma cells; test: as above; assay type: cell-based, human
[3] = target: T1, recombinant human caspase 3 (Homo sapiens, UniProt P42574); test: Activation of Ac-DEVD-PABC-doxorubicin by caspase 3 (HPLC); assay type: biochemical; details: 60 μM prodrug, 1 ng caspase 3
T1 construct: purchased Calbiochem
T1 sequence (P42574 29-175 limits assumed): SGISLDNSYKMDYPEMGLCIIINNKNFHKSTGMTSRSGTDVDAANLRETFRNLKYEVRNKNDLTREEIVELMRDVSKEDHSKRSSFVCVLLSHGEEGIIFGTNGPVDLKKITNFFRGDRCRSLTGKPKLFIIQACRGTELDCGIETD
T1 sequence (P42574 176-277 limits assumed): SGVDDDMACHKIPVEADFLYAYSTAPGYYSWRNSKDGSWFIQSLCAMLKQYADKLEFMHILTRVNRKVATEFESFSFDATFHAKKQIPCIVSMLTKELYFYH

[4] = following treatment with caspase 3

## COc1cccc2c1C(=O)c1c(O)c3c(c(O)c1C2=O)C[C@@](O)(C(=O)CO)C[C@@H]3O[C@H]1C[C@H](NC(=O)OCc2ccc(NC(=O)[C@H](CC(=O)O)NC(=O)[C@@H](NC(=O)[C@H](CCC(=O)O)NC(=O)[C@H](CC(=O)O)NC(C)=O)C(C)C)cc2)[C@H](O)[C@H](C)O1 [Ac-DEVD-PABC-Doxorubicin, Ac-DEVD-PABC-doxorubicin] (Ac-DEVD[PABC]-{Doxorubicin(3'-N)})
[1]; [4]
  toxicity compared with doxorubicin: equally toxic to doxorubicin
[1]; without caspase 3
  fold less toxic than doxorubicin: more than 100 fold
[2]; [4]
  toxicity compared with doxorubicin: equally toxic to doxorubicin
[2]; without caspase 3
  fold less toxic than doxorubicin: more than 100 fold
[3]
  activation by caspase 3 (conversion to doxorubicin): efficiently activated
